# In PubChem BioAssay AID540276 (National Center for Advancing Translational Sciences (NCATS), 2011):
# Values joined by “and” are separate entries in the source; they are usually repeats but may differ in a detail not shown here. Equal values may be shown once. About 5,400 (1.8%) of roughly 300,000 compounds were called active. Inconclusive means that the source gave no clear call. Such entries were picked first, then a sample of the others. Calls follow the shape of the full dose curve; tested in HEK293 cells. A potency beside an inconclusive call is a rough fit, not a confirmed value.
# Test: qHTS for inhibitors of binding or entry into cells for Marburg Virus
# Conditions: Marburg virus pseudotyped entry inhibition, cell reporter; activity change, negative = inhibition: at 37.8 µM (top of the series) unless noted
# % is scaled to controls: 0 for no effect and ±100 for the full control effect; potency is read from the fitted curve at half-maximal effect.
Structure (SMILES),"activity change, negative = inhibition",Potency
CCC(C)c1ccc(OCC(=O)Nc2ccc(CN3CCOCC3)cc2)cc1 (stereo not drawn),inactive: -7.57%,
O=C(c1ccc(S(=O)(=O)c2ccccc2)cc1)N1CCc2ccccc2C1,,"inconclusive: 0.251 µM [inhibitor, full curve, poor fit]"
N=c1c[n+](N2CCOCC2)[n-]o1,,inactive
CCOc1ccc(OCC(O)CNC2CCN(Cc3ccccc3)CC2)cc1 (stereo not drawn),,active: 1.58 µM
Cc1c(Cl)cccc1NC(=S)NC1CCN(Cc2ccccc2)CC1,,active: 16.4 µM
O=C(COc1ccc(S(=O)(=O)N2CCCC2)cc1Cl)NCc1cccnc1,inactive: 22.6%,
CCOc1cccc(C(=O)Nc2ccncc2)c1,,"inconclusive: 7.08 µM [inhibitor, partial curve, poor fit]"
C=CCNS(=O)(=O)c1ccc(OC)c(C)c1,inactive: -13.4%,
Cc1nc(N)sc1C(=O)N1N=N1,inactive: 4.45% [at 46.1 µM],
NS(=O)(=O)c1ccc(NC(=S)Nc2ccc(Br)c(Cl)c2)cc1,,"inconclusive: 1.26 µM [inhibitor, full curve, poor fit]"
O=C(NCCN1CCN(C(=O)c2ccc(F)cc2)CC1)C(=O)NCc1ccccc1,,"inconclusive: 11.2 µM [inhibitor, single point]"
O=C(N/N=C\c1c(O)ccc2ccccc12)c1cncc(Br)c1,,"inconclusive: 1.78 µM [inhibitor, full curve, poor fit]"
O=C(N/N=C/c1cccc(O)c1)NC1CCCCC1,inactive: -4.81% [at 46.1 µM],
CCOc1ccc(-c2cnc(NCc3cccc(Cl)c3)n2C)cc1,,"inconclusive: 11.2 µM [inhibitor, partial curve, poor fit]"
COc1ccc(CNC(=O)COc2ccc(S(=O)(=O)N3CCCCC3)cc2)cc1,inactive: 1.67%,
O=C(NCC(c1ccc(F)cc1)N1CCOCC1)c1cc(F)c(F)c(F)c1F (stereo not drawn),,"inconclusive: 22.4 µM [inhibitor, single point]"
O=C(Cn1ccc2ccccc2c1=O)NCCC(=O)N1CCCCC1,inactive: -0.361% [at 46.1 µM],
Cc1ccc(C)c(S(=O)(=O)Nc2ccc(C(=O)NCC(c3ccco3)N3CCCCC3)cc2)c1 (stereo not drawn),,"inconclusive: 14.1 µM [inhibitor, single point]"
COc1ccc(-c2cc3c(c4c2ccn4C)C2CCC3C2)cc1OC (stereo not drawn),,"inconclusive: 1.12 µM [inhibitor, full curve, poor fit]"
COc1ccc(-c2nn(C)c3sc(C(=O)N4CCN(c5cc(Cl)ccc5C)CC4)cc23)cc1OC,,"inconclusive: 7.94 µM [inhibitor, partial curve, poor fit]"
Cc1cc(C)n(-c2nc(C(=O)O)cs2)n1,inactive: 23.4% [at 46.1 µM],
CCOc1ccc(S(=O)(=O)Nc2ccc(C(=O)NCC(c3ccco3)N3CCCCC3)cc2)cc1 (stereo not drawn),,"inconclusive: 11.2 µM [inhibitor, partial curve]"
Cc1nc2cc(-c3cccc(F)c3)nn2c(C)c1CCC(=O)NC1CCCCC1,,"inconclusive: 4.47 µM [inhibitor, full curve, poor fit]"

# Retrieved by compound from the entries so far (two):
Structure (SMILES),"activity change, negative = inhibition",Potency
O=C(Cn1ccc2ccccc2c1=O)NCCC(=O)N1CCCCC1,inactive: -0.361% [at 46.1 µM],
Cc1ccc(C)c(S(=O)(=O)Nc2ccc(C(=O)NCC(c3ccco3)N3CCCCC3)cc2)c1 (stereo not drawn),,"inconclusive: 14.1 µM [inhibitor, single point]"

# (cont.)

Structure (SMILES),"activity change, negative = inhibition",Potency
Cc1ccc(C(C)C)cc1OCC(=O)NNC(=O)Nc1ccccc1,inactive: -13.2% [at 46.1 µM],
Cc1ccc(C)c(Cn2nnc(C(=O)NCc3ccccc3)c2N)c1,,"inconclusive: 2.82 µM [inhibitor, full curve, poor fit]"
COc1ccc(NC(=O)CN(C)C(=O)c2ccc(S(=O)(=O)Nc3ccccc3F)cc2)cc1,,"inconclusive: 35.5 µM [activator, single point]"
Cc1ccc(O)c(C(CC(=O)NC2CCCCC2)c2ccccc2)c1 (stereo not drawn),,"inconclusive: 11.2 µM [inhibitor, single point]"
CC(C)(CNC(=O)c1cc(=O)[nH]c2ccccc12)N1CCOCC1,,"inconclusive: 4.47 µM [inhibitor, full curve, poor fit]"
O=C(CCc1nnc(CCCc2ccccc2)o1)NCCCC1CCCC1,inactive: 1.43% [at 46.1 µM],
COc1ccc(OCc2cc(/C=N\NC(=O)c3ccccc3)ccc2OC)cc1,,"inconclusive: 2.82 µM [inhibitor, full curve, poor fit]"
CCOc1ccc(CNC(=O)c2sc3nc(C)cc(C)c3c2-n2cccc2)cc1,inactive: -15.4% [at 46.1 µM],
Cc1cc2oc(C(=O)Nc3nc(-c4ccccc4)ns3)c(C)c2cc1Cl,inactive: -1.85% [at 46.1 µM],
O=C(Nc1ccc2c(c1)OCCO2)c1ccc2ccccc2n1,,"inconclusive: 35.5 µM [inhibitor, single point]"
CCCN1CNC(=S)N(CCc2ccccc2)C1,,"inconclusive: 35.5 µM [inhibitor, single point]"
CC1(C)N(O)C2CCCCC2N1O (stereo not drawn),,"inconclusive: 0.398 µM [activator, partial curve, poor fit]"
CC(=O)c1ccc(NC(=O)/C(=C\c2ccccc2)NC(=O)/C=C/c2ccccc2)cc1,inactive: -1% [at 46.1 µM],
Cc1cc2oc(=O)c3c(c2cc1OC(=O)c1ccco1)CCCC3,,"inconclusive: 0.891 µM [inhibitor, full curve, poor fit]"
Cc1ccc(CNC(=O)c2cc3sccc3n2Cc2ccc(F)cc2)cc1,,"inconclusive: 1.58 µM [inhibitor, partial curve, poor fit]"
CCCNC(=S)N1CCN(c2nc(C)nc3sc4c(c23)CCCC4)CC1,,"inconclusive: 35.5 µM [inhibitor, single point]"
COc1ccc(N[C@H]2CC(=O)N(C)C2=O)cc1,inactive: 4.21%,
C=C(C[C@]1(C(=O)OC)C[C@]2(CC=C(C)C)C(=O)C(C(=O)CC(C)C)=C(O)[C@@](CC=C(C)C)(C1)C2=O)C(=O)OC,,"inconclusive: 0.106 µM [activator, full curve, poor fit]"
O=C(OCC1OC(OC(=O)c2cc(O)c(O)c(OC(=O)c3cc(O)c(O)c(O)c3)c2)[C@@H](OC(=O)c2cc(O)c(O)c(OC(=O)c3cc(O)c(O)c(O)c3)c2)C(OC(=O)c2cc(O)c(O)c(OC(=O)c3cc(O)c(O)c(O)c3)c2)C1OC(=O)c1cc(O)c(O)c(OC(=O)c2cc(O)c(O)c(O)c2)c1)c1cc(O)c(O)c(OC(=O)c2cc(O)c(O)c(O)c2)c1 (stereo partly drawn),,active: 0.353 µM
O=C(O)/C=C/c1nc(-c2ccccc2)n2ccccc12,,"inconclusive: 32.6 µM [activator, single point]"
COc1ccccc1CNC(=O)COC(=O)c1cccc(S(=O)(=O)N2CCOCC2)c1,inactive: 2.44% [at 46.1 µM],
C=CC[N+]1(CC(=O)NCc2ccc(NC(C)=O)cc2)CCOCC1,inactive: 13.9% [at 46.1 µM],

Structure (SMILES),"activity change, negative = inhibition",Potency
O=C(NCCN1CCN(C(=O)c2cccc([N+](=O)[O-])c2)CC1)C(=O)NCc1ccc(Cl)cc1,,"inconclusive: 35.5 µM [inhibitor, single point]"
Cc1cc(C)cc(NC(=O)COC(=O)c2n[nH]c3ccccc23)c1,,"inconclusive: 11.2 µM [inhibitor, partial curve, poor fit]"
CC(C)(C)c1ccc(OCCC(=O)Nc2cccc(S(=O)(=O)N3CCCCC3)c2)cc1,,"inconclusive: 18.4 µM [inhibitor, single point]"
O=[N+]([O-])c1ccc(-c2nc(NCc3ccccc3)c3ccccc3n2)cc1,,"inconclusive: 5.01 µM [inhibitor, full curve, poor fit]"
Cn1c(=O)cc(NCCc2ccccc2)[nH]c1=O,,"inconclusive: 6.31 µM [inhibitor, partial curve, poor fit]"
COc1ccc(CCN(C)Cc2ccc(F)cc2F)cc1OC,inactive: -18.5%,
CCOC(=O)c1c(NC(=O)CN2CCCCC2)sc(CN(C)C)c1-c1ccccc1,,"inconclusive: 7.08 µM [inhibitor, full curve, poor fit]"
CCN(CC)c1ccc(NC(=O)c2cnn3c(C(F)F)cc(-c4ccccc4)nc23)cc1,inactive: -0.423% [at 46.1 µM],
CCOC(=O)c1ccc(Nc2cc(C)nc(N3CCOCC3)n2)cc1,,"inconclusive: 20 µM [inhibitor, partial curve, poor fit]"
CCC(C)C(NC(N)=O)C(=O)Nc1ccc(S(=O)(=O)Nc2ccc(OC)cc2)cc1 (stereo not drawn),,"inconclusive: 6.31 µM [activator, single point]"
O=C(Nc1cccc(C(F)(F)F)c1)C(Sc1ncnc2ccccc12)c1ccccc1 (stereo not drawn),,"inconclusive: 1.78 µM [inhibitor, full curve]"
COc1ccc(C(=S)N2CCOCC2)cc1OC(=O)c1ccccc1Cl,,"inconclusive: 25.1 µM [inhibitor, partial curve, poor fit]"
CCCn1c2c(c(=N)c3c1CCC3)CCC2,,"inconclusive: 0.562 µM [activator, single point]"
CCN(CC)c1cccc(OCC(=O)N(C)CCC#N)c1,inactive: 23.9%,
CCN(CCn1cccn1)C(=O)c1cc(COc2c(F)cccc2F)on1,,"inconclusive: 35.5 µM [activator, single point]"
COc1ccc(C(c2nnnn2CC2CCCO2)N2CCN(c3ccccc3)CC2)cc1 (stereo not drawn),inactive: -25.4%,
CC(=O)Nc1ccc(C(=O)CN2CCN(c3ccccc3)CC2)cc1,,"inconclusive: 35.5 µM [activator, single point]"
Cc1ccc(C)n1-n1c(C)nc2sc3c(c2c1=O)CCCCC3,,"inconclusive: 35.5 µM [inhibitor, single point]"
Cc1ccccc1NC1=CC(=O)CC(C)(C)C1,inactive: -2.07%,
O=C1S/C(=C\c2ccc(O)c([N+](=O)[O-])c2)C(=O)N1Cc1cccc([N+](=O)[O-])c1,,"inconclusive: 35.5 µM [inhibitor, single point]"
COCOc1ccc(Br)cc1C(=O)C=Cc1ccc2c(c1)OCO2,inactive: 5.59% [at 14.2 µM],
Cc1cc(C(=O)COC(=O)Cc2n[nH]c(=O)c3ccccc23)c(C)n1-c1cccc(C(F)(F)F)c1,,active: 11.2 µM
